# Measured data: PubChem BioAssay AID1259308 (NCATS, 2017)
# Purpose: 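Genes whose loss raises luciferase production in HEK293 cells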 (primary screen)
# System: human HEK293 embryonic kidney cells stably expressing firefly luciferase (HEK-CMV-Luc2-Hygro)
# Reagent: single siRNA against human genes, 0.8 pmol siRNA per well
# Timing: 72 h
# Read-out: 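Reporter luminescence and viable-cell signal on separate replicate plates, given as percent of non-targeting control and median/MAD z-scores, plus per-cell luciferase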
# Reading the numbers: total luciferase, z-score and total luciferase, % of control: higher = more reporter protein produced; luciferase per cell, z-score: higher = more reporter output per viable cell; viable cells, % of control: higher = more viable cells
# Hit rule: 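An siRNA counts as active if its total luciferase robust z-score exceeds 3; genes with two or more such siRNAs out of three were retested with fresh siRNAs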
# Calls: active = raised luciferase; inactive = no rise
# This is a random part of about 59,000 reagents tested. In the full data, about 1,510 (2.6%) got an active call. 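Calls use total luciferase alone and ignore viability, so some active siRNAs may act by altering cell number.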 Reagents against one gene are numbered here. Reagent sequences are not shown.
gene symbol,reagent,"total luciferase, z-score","total luciferase, % of control","luciferase per cell, z-score","viable cells, % of control",outcome
CNTNAP3B (contactin associated protein family member 3B),1,2.21,126,2.48,73.2,inactive
CNTNAP3B (contactin associated protein family member 3B),2,3.29,147,2.97,75.3,active
CNTNAP3B (contactin associated protein family member 3B),3,2.92,140,2.28,85.7,inactive
CNTNAP3B (contactin associated protein family member 3B),4,-0.678,68.4,-0.249,81.6,inactive
CNTNAP3B (contactin associated protein family member 3B),5,-0.408,73.8,0.174,78.8,inactive
CNTNAP3B (contactin associated protein family member 3B),6,-1.18,58.5,-1.28,91.5,inactive
ATP5F1B (ATP synthase F1 subunit beta),1,-0.86,64.8,-0.932,92.5,inactive
ATP5F1B (ATP synthase F1 subunit beta),2,-0.955,62.9,-1,91.4,inactive
ATP5F1B (ATP synthase F1 subunit beta),3,-0.983,62.3,-0.485,79.1,inactive
TEX47 (testis expressed 47),1,2.72,136,1.96,90.7,inactive
TEX47 (testis expressed 47),2,2.97,141,2.64,78.6,inactive
TEX47 (testis expressed 47),3,-0.409,73.8,-0.838,103,inactive
SLC36A1,1,-2.33,35.5,-2.22,71.1,inactive
SLC36A1,2,0.739,96.6,0.697,89.8,inactive
SLC36A1,3,-0.147,79,0.765,72.2,inactive
RGR (retinal G protein coupled receptor),1,-0.299,75.9,-0.11,87.4,inactive
RGR (retinal G protein coupled receptor),2,0.759,97,1.26,77.8,inactive
RGR (retinal G protein coupled receptor),3,-0.932,63.4,-1.08,94.1,inactive
BUB1 (BUB1 mitotic checkpoint serine/threonine kinase),1,-0.78,66.4,-0.031,74.8,inactive
BUB1 (BUB1 mitotic checkpoint serine/threonine kinase),2,0.778,97.4,0.456,96.5,inactive
BUB1 (BUB1 mitotic checkpoint serine/threonine kinase),3,0.741,96.6,0.0408,107,inactive
THG1L (tRNA-histidine guanylyltransferase 1 like),1,0.402,89.9,1.23,72.7,inactive
THG1L (tRNA-histidine guanylyltransferase 1 like),2,0.278,87.4,-0.167,102,inactive
THG1L (tRNA-histidine guanylyltransferase 1 like),3,0.516,92.1,0.492,90.4,inactive
ABTB3 (ankyrin repeat and BTB domain containing 3),1,-1.59,50.2,-1.71,87.9,inactive
ABTB3 (ankyrin repeat and BTB domain containing 3),2,-0.631,69.3,-0.384,85.7,inactive
ABTB3 (ankyrin repeat and BTB domain containing 3),3,-0.4,73.9,-0.159,86.2,inactive
NRN1 (neuritin 1),1,3.78,157,1.46,119,active
NRN1 (neuritin 1),2,1.5,112,1.07,94.2,inactive
NRN1 (neuritin 1),3,2.07,123,1.73,87.1,inactive
MAP3K5 (mitogen-activated protein kinase kinase kinase 5),1,-0.846,65.1,-0.905,92.3,inactive
MAP3K5 (mitogen-activated protein kinase kinase kinase 5),2,0.212,86.1,0.929,75.3,inactive
MAP3K5 (mitogen-activated protein kinase kinase kinase 5),3,-0.072,80.5,-0.381,99.4,inactive
SENP1 (SUMO specific peptidase 1),1,-0.943,63.1,-0.737,85.6,inactive
SENP1 (SUMO specific peptidase 1),2,0.881,99.4,0.316,102,inactive
SENP1 (SUMO specific peptidase 1),3,0.454,90.9,-0.232,108,inactive
SLCO5A1,1,2.83,138,1.61,101,inactive
SLCO5A1,2,-1.55,51.1,-1.51,84.9,inactive
SLCO5A1,3,-0.165,78.6,0.988,67.7,inactive
CXXC4 (CXXC finger protein 4),1,0.36,89.1,0.0298,98.7,inactive
CXXC4 (CXXC finger protein 4),2,0.553,92.9,0.148,99.8,inactive
CXXC4 (CXXC finger protein 4),3,-0.439,73.2,-0.817,101,inactive
ANGPTL2 (angiopoietin like 2),1,1.88,119,1.46,90.8,inactive
ANGPTL2 (angiopoietin like 2),2,0.224,86.3,-0.303,104,inactive
ANGPTL2 (angiopoietin like 2),3,-0.365,74.6,-0.24,88.8,inactive
SDHC (succinate dehydrogenase complex subunit C),1,-0.33,75.3,-0.31,91.3,inactive
SDHC (succinate dehydrogenase complex subunit C),2,3.24,146,2.32,88.8,active
SDHC (succinate dehydrogenase complex subunit C),3,2.96,141,1.59,103,inactive
SPRYD4 (SPRY domain containing 4),1,-0.616,69.6,-0.35,85.3,inactive
SPRYD4 (SPRY domain containing 4),2,0.105,84,-0.18,98.4,inactive
SPRYD4 (SPRY domain containing 4),3,-0.217,77.6,0.123,83.9,inactive
"PNPLA5 (patatin like domain 5, triacylglycerol lipase)",1,-1,61.9,0.354,63,inactive
"PNPLA5 (patatin like domain 5, triacylglycerol lipase)",2,0.0958,83.8,0.384,84.6,inactive
"PNPLA5 (patatin like domain 5, triacylglycerol lipase)",3,2.3,128,1.91,86.2,inactive
SEC14L5 (SEC14 like lipid binding 5),1,-0.142,79.1,0.82,71.2,inactive
SEC14L5 (SEC14 like lipid binding 5),2,1.5,112,1.46,85.1,inactive
SEC14L5 (SEC14 like lipid binding 5),3,-0.611,69.7,-1.04,102,inactive

Called active, of those listed so far:
gene symbol,reagent,"total luciferase, z-score","total luciferase, % of control","luciferase per cell, z-score","viable cells, % of control",outcome
CNTNAP3B (contactin associated protein family member 3B),2,3.29,147,2.97,75.3,active
NRN1 (neuritin 1),1,3.78,157,1.46,119,active
SDHC (succinate dehydrogenase complex subunit C),2,3.24,146,2.32,88.8,active
